Results: publication PMC7046304
These are yes or no findings as the source states them, for the method shown. In cells and extracts the contact can be indirect. Some results given as binding are weak or reduced against the parent protein; the word gives no strength.

Sequences of proteins named here, by UniProt entry; tags and fusion partners are left off.
UniProt P54578: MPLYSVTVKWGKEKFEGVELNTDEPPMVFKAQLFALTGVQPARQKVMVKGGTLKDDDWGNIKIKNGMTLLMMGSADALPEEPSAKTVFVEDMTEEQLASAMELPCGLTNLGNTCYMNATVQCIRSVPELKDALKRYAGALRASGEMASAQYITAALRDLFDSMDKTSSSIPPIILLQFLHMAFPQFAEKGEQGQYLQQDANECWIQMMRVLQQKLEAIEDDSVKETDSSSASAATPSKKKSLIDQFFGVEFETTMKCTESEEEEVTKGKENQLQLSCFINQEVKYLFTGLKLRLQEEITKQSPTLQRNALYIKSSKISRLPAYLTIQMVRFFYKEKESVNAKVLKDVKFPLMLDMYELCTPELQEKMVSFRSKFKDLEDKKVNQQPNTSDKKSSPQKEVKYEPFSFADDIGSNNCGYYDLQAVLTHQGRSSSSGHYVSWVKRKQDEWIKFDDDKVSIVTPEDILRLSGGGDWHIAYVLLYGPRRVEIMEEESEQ

Target: ubiquitin‐specific peptidase 14 (USP14) (human (endogenous in human podocytes)) (UniProt P54578)
Test: co-IP; lysates of HG-treated human podocytes (sh-NC or sh-SPAG5-AS1) in IP lysis buffer, incubated with anti-USP14 or control IgG overnight at 4°C, beads, washed 3 times, Western blotting

B1: sperm‐associated antigen 5 (SPAG5) (protein, UniProt Q96R06 1-1193)
chain: MWRVKKLSLSLSPSPQTGKPSMRTPLRELTLQPGALTNSGKRSPACSSLTPSLCKLGLQEGSNNSSPVDFVNNKRTDLSSEHFSHSSKWLETCQHESDEQPLDPIPQISSTPKTSEEAVDPLGNYMVKTIVLVPSPLGQQQDMIFEARLDTMAETNSISLNGPLRTDDLVREEVAPCMGDRFSEVAAVSEKPIFQESPSHLLEESPPNPCSEQLHCSKESLSSRTEAVREDLVPSESNAFLPSSVLWLSPSTALAADFRVNHVDPEEEIVEHGAMEEREMRFPTHPKESETEDQALVSSVEDILSTCLTPNLVEMESQEAPGPAVEDVGRILGSDTESWMSPLAWLEKGVNTSVMLENLRQSLSLPSMLRDAAIGTTPFSTCSVGTWFTPSAPQEKSTNTSQTGLVGTKHSTSETEQLLCGRPPDLTALSRHDLEDNLLSSLVILEVLSRQLRDWKSQLAVPHPETQDSSTQTDTSHSGITNKLQHLKESHEMGQALQQARNVMQSWVLISKELISLLHLSLLHLEEDKTTVSQESRRAETLVCCCFDLLKKLRAKLQSLKAEREEARHREEMALRGKDAAEIVLEAFCAHASQRISQLEQDLASMREFRGLLKDAQTQLVGLHAKQEELVQQTVSLTSTLQQDWRSMQLDYTTWTALLSRSRQLTEKLTVKSQQALQERDVAIEEKQEVSRVLEQVSAQLEECKGQTEQLELENSRLATDLRAQLQILANMDSQLKELQSQHTHCAQDLAMKDELLCQLTQSNEEQAAQWQKEEMALKHMQAELQQQQAVLAKEVRDLKETLEFADQENQVAHLELGQVECQLKTTLEVLRERSLQCENLKDTVENLTAKLASTIADNQEQDLEKTRQYSQKLGLLTEQLQSLTLFLQTKLKEKTEQETLLLSTACPPTQEHPLPNDRTFLGSILTAVADEEPESTPVPLLGSDKSAFTRVASMVSLQPAETPGMEESLAEMSIMTTELQSLCSLLQESKEEAIRTLQRKICELQARLQAQEEQHQEVQKAKEADIEKLNQALCLRYKNEKELQEVIQQQNEKILEQIDKSGELISLREEVTHLTRSLRRAETETKVLQEALAGQLDSNCQPMATNWIQEKVWLSQEVDKLRVMFLEMKNEKEKLMIKFQSHRNILEENLRRSDKELEKLDDIVQHIYKTLLSIPEVVRGCKELQGLLEFLS
- binding: binds
